# Experimental data taken from PubChem BioAssay AID504444 (National Center for Advancing Translational Sciences (NCATS), 2011).
# Hit rate of the full screen: of about 360,000 compounds, about 7,500 (2.1%) were called active. The inconclusive results got no clear call from the source; some entries with a clear call stand among them for comparison. Calls come from the whole dose curve; as a rule, active = well fitted inhibition curve with a large enough effect; inconclusive = small, poorly fitted or top-dose-only effect, or effect the other way; inactive = flat fitted curve, though single readings scatter. A potency beside an inconclusive call is a rough fit, not a confirmed value.
# Test: Nrf2 qHTS screen for inhibitors; note: nearly all actives have a fitted effect of over 60% in size
# Details: A549 ARE-Fluc reporter, luciferase luminescence, 18-24 h; series mostly up to 46 µM
# Procedure, shortened: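 Quantitative HTS in A549 cells stably bearing an antioxidant response element-firefly luciferase construct. Inhibition of Nrf2-driven transcription was scored by luminescence after 18-24 h of compound exposure at 37 °C.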
# Potency is the fitted concentration of half-maximal effect.
row,Structure (SMILES),Potency
1,Cc1ccc(NC(=S)NNc2ncc(C(F)(F)F)cc2Cl)c(C)c1,"inconclusive: 18.4 µM [falling, single point]"
2,O=C(NNC(=S)Nc1ccccc1)c1ccccc1[N+](=O)[O-],"inconclusive: 4.11 µM [activator, full curve]"
3,CC1CCC(NC(=O)CN(C)S(=O)(=O)c2cccc3cccnc23)CC1 (stereo unspecified),"inconclusive: 3.66 µM [falling, partial curve, poor fit]"
4,CNC(=O)c1ccc2nc(-c3ccccc3)c(-c3ccccc3)nc2c1,"inconclusive: 0.184 µM [falling, full curve, poor fit]"
5,CC(=O)c1cccc(OCc2cc(C(=O)N(C)Cc3cnccn3)no2)c1,"inconclusive: 9.2 µM [activator, partial curve]"
6,CC1=CC(C)(C)N(C(=O)CSc2nnc(N)s2)c2cc(C)c(C)cc21,"inconclusive: 20.6 µM [falling, single point]"
7,CC(=O)N1c2ccc(S(=O)(=O)N3CCC(C(=O)N4CC(C)CC(C)C4)CC3)cc2CC1C (stereo unspecified),inactive
8,COc1ccccc1NS(=O)(=O)c1cc(C(=O)NCC(c2ccc(F)cc2)N2CCOCC2)ccc1C (stereo unspecified),"inconclusive: 11.6 µM [falling, partial curve]"
9,COc1cc(/C=N/NC(=O)CN2CCCCC2)ccc1OCc1ccc(Br)cc1,"inconclusive: 18.4 µM [activator, partial curve]"
10,Cc1cccc(NC(=S)N/N=C2/CCCCc3ccccc32)c1,inactive
11,CC1(C)CNC(=O)c2sc(N3CCCCC3)nc2C1,"inconclusive: 14.6 µM [activator, single point]"
12,O=C(NC1CCCCC1)c1cc(-c2ccccc2Cl)on1,"inconclusive: 5.17 µM [activator, full curve]"
13,Cc1ccc(-c2nn3c(C)nnc3c3ccccc23)cc1S(=O)(=O)NC(C)c1ccccc1 (stereo unspecified),"inconclusive: 29.1 µM [falling, single point]"
14,CCOC(=O)C1=C(CN2CCC(C(=O)OCC)CC2)NC(=O)NC1c1ccc(Cl)cc1 (stereo unspecified),inactive
15,Cc1ccc(S(=O)(=O)N2CCOCC2)cc1NC(=O)CSc1nccn1C,"inconclusive: 0.116 µM [activator, full curve, poor fit]"
16,Cc1cccc(NC(=O)C2CCCN2C(=O)Oc2ccccc2)c1 (stereo unspecified),"inconclusive: 25.9 µM [falling, single point]"
17,CC1(C)Cc2cccc(Oc3cc(NN4CCCCC4)c([N+](=O)[O-])cc3[N+](=O)[O-])c2O1,"inconclusive: 13 µM [falling, partial curve, poor fit]"
18,Cc1nn(C)c2c1c(C(F)(F)F)cc(=O)n2CC(=O)NCc1ccccc1Cl,"inconclusive: 7.31 µM [activator, partial curve]"
19,Cc1cc(NC(=O)C(C)SCC(=O)Nc2cc(C(F)(F)F)ccc2N2CCOCC2)no1 (stereo unspecified),inactive
20,COC(=O)c1sc2nc[nH]c(=O)c2c1C,inactive
21,COc1ccc(-c2ccc3ncnc(NCC4CCCO4)c3c2)cc1OC (stereo unspecified),"inconclusive: 9.2 µM [falling, partial curve, poor fit]"
22,CC(C)(C)C1CCC(=NNC(=S)Nc2cccnc2)CC1 (stereo unspecified),inactive

# Look-ups from the entries so far:
# Cc1cccc(NC(=O)C2CCCN2C(=O)Oc2ccccc2)c1 (stereo unspecified) – Potency: inconclusive: 25.9 µM [falling, single point]
# CC1=CC(C)(C)N(C(=O)CSc2nnc(N)s2)c2cc(C)c(C)cc21 – Potency: inconclusive: 20.6 µM [falling, single point]
# Cc1ccc(NC(=S)NNc2ncc(C(F)(F)F)cc2Cl)c(C)c1 – Potency: inconclusive: 18.4 µM [falling, single point]

# Further entries follow:

row,Structure (SMILES),Potency
1,CC(C)(C)OC(=O)NCCCCCNC(=O)c1[nH]cnc1C(=O)Nc1nccs1,inactive
2,CCOC(=O)C(C)Sc1ccc2nnc(-c3ccc(OCC)cc3)n2n1 (stereo unspecified),"inconclusive: 11.6 µM [falling, single point]"
3,C=CCn1c(SCC(=O)NCc2ccco2)nc2sc3c(c2c1=O)CCCC3,"inconclusive: 0.461 µM [falling, partial curve, poor fit]"
4,Cc1onc(-c2ccccc2)c1C(=O)Nc1sc2c(c1C#N)CCC(C)C2 (stereo unspecified),"inconclusive: 13 µM [falling, partial curve]"
5,Cc1ccc(CC(=O)Nc2c(C(=O)N3CCN(c4ccccc4F)CC3)oc3ccccc23)cc1,"inconclusive: 29.1 µM [falling, single point]"
6,N#Cc1nc(COc2ccccc2)oc1N1CCN(c2cccc(Cl)c2)CC1,"inconclusive: 6.51 µM [activator, single point]"
7,CC(C)OCCCN1C(=O)c2[nH]nc(-c3ccccc3O)c2C1c1ccc(OCc2ccccc2)cc1 (stereo unspecified),"inconclusive: 20.6 µM [falling, single point]"
8,Cc1ccc(NS(=O)(=O)c2ccc3c(c2)NC(=O)CCS3)c(Br)c1,"inconclusive: 14.6 µM [falling, single point]"
9,CCN(CC)S(=O)(=O)c1cccc(-c2nnc(SCC#N)n2Cc2ccccc2)c1,"inconclusive: 0.731 µM [falling, partial curve, poor fit]"
10,O=C(Nc1ccncc1)c1ccc2ccccc2c1,inactive
11,O=C(CN1CCOCC1)Nc1ncc(Cc2cccc(Cl)c2Cl)s1,"inconclusive: 20.6 µM [falling, single point]"
12,COc1ccc(OCc2nnc(-c3ccccc3)o2)cc1,"inconclusive: 29.1 µM [activator, single point]"
13,O=C(Nc1ccccc1)c1cc([N+](=O)[O-])ccc1N1CCCCC1,"inconclusive: 9.2 µM [falling, partial curve, poor fit]"
14,CC(=O)Nc1ccc(C(=O)CSc2ncn(-c3ccccc3)n2)cc1,"inconclusive: 11.6 µM [activator, partial curve, poor fit]"
15,Clc1ccccc1-c1ccc(/C=N/n2cnnc2)o1,"inconclusive: 23.1 µM [falling, partial curve, poor fit]"
16,COc1ccc(NC(=O)CSc2nnc(Cc3cccn3C)n2CCc2ccccc2)c(OC)c1,"inconclusive: 32.6 µM [falling, single point]"
17,Cc1ccc(SCC(=O)c2cc(C)c(OC(=S)N(C)C)c(C)c2)cc1,"inconclusive: 3.66 µM [activator, full curve, poor fit]"
18,CCN(CC)CCNC(=O)c1ccc2c(c1NCCO)C(=O)c1ccccc1C2=O,active: 3.26 µM
19,CCOc1ccc(S(=O)(=O)N2CCN(c3ccccc3)CC2)cc1C(N)=O,"inconclusive: 1.46 µM [activator, full curve, poor fit]"
20,CCn1nc(NC(=O)c2ccco2)c2cc3ccccc3nc21,inactive
21,O=C(NCCn1cc(SCc2ccc(F)cc2)c2ccccc21)c1ccccc1F,"inconclusive: 23.1 µM [falling, single point]"
22,COc1cccc(NC(=O)C2CCN(S(=O)(=O)c3ccc4c(c3)N(C(C)=O)CCO4)CC2)c1,"inconclusive: 16.4 µM [falling, partial curve]"

row,Structure (SMILES),Potency
1,CC#CCOC(=O)c1c(C)nc2sc3c(c2c1N)CCC(O)C3 (stereo unspecified),"inconclusive: 29.1 µM [falling, single point]"
2,CC(C)CC(=O)NC(NC(=S)Nc1ccccc1)C(Cl)(Cl)Cl (stereo unspecified),inactive
3,COc1ccc2c(Sc3ccc(Cl)cc3)c(C(=O)NCCCN3CCCCC3)[nH]c2c1,"inconclusive: 29.1 µM [falling, single point]"
4,N#C/C(=C/c1ccc(N2CCOCC2)o1)C(=O)Nc1ccccc1,"inconclusive: 3.66 µM [activator, full curve]"
5,Cc1c(CCOC(=O)c2cc([N+](=O)[O-])cc([N+](=O)[O-])c2)sc[n+]1CC(=O)c1ccccc1,inactive
6,CCCCOc1ccc(C(=S)N2CCC(C(N)=O)CC2)cc1,"inconclusive: 8.2 µM [activator, partial curve]"
7,CCCCCOc1ccccc1C(=O)NCCCCCC(=O)O,"inconclusive: 8.2 µM [falling, partial curve]"
8,Cc1cccc(NC(=O)CSc2nc3c([nH]c4ccccc43)c(=O)n2C)c1,"inconclusive: 25.9 µM [falling, partial curve, poor fit]"
9,Cc1ccc(S(=O)(=O)CCC(=O)NCc2ccco2)cc1,"inconclusive: 2.31 µM [falling, partial curve, poor fit]"
10,COc1ccc(NC(=O)Nc2nnc(C(C)(C)C)s2)cc1,"inconclusive: 20.6 µM [activator, partial curve]"
11,COc1ccc(CCNC(=O)Nc2cc(F)c(F)cc2Cl)cc1OC,"inconclusive: 23.1 µM [falling, partial curve, poor fit]"
12,O=S(=O)(Nc1ncccn1)c1cc(Cl)ccc1Cl,inactive
13,COc1ccc(NC(=O)N2CCN(c3nc(-c4cccc(OC)c4)cs3)CC2)cc1,"inconclusive: 29.1 µM [falling, single point]"
14,O=C(Nc1cc(Cl)ccc1O)C1CCCO1 (stereo unspecified),"inconclusive: 2.06 µM [activator, partial curve, poor fit]"
15,CCCCOc1ccc(C(=O)N2CCN(c3ccc(N4CCOCC4)nn3)CC2)cc1,"inconclusive: 29.1 µM [falling, single point]"
16,CCc1ccc(-c2nc(SCC(=O)NCCOC)c(-c3ccc(C)cc3)[nH]2)cc1,inactive
17,Cc1nc2cc(NC(=O)c3ccc(Br)s3)ccc2s1,"inconclusive: 32.6 µM [falling, single point]"
18,COC(=O)c1ccc(Cl)c(NC(=O)CN2CCOCC2)c1,"inconclusive: 1.46 µM [activator, full curve, poor fit]"
19,O=C(CSc1ncccc1C(=O)O)c1ccccc1F,"inconclusive: 16.4 µM [activator, partial curve]"
20,Cc1cc(N2CCN(c3ccccn3)CC2)n2cc(-c3ccccc3)nc2n1,inactive
21,COc1ccc(C2=Nn3c(nnc3-c3ccco3)SC2)cc1,"inconclusive: 9.2 µM [falling, partial curve, poor fit]"
22,COc1ccc(Nc2nnc(-c3ccc(C)c(S(N)(=O)=O)c3)c3ccccc23)cc1,"inconclusive: 23.1 µM [falling, partial curve, poor fit]"
